Assay results: patent publication US4822774A (Eisai Co., Ltd., priority 1986, dated 1989)
Strings that start with PEPTIDE1 are HELM notation: dots part the residues, brackets hold end groups and non-standard residues.

Experiment: general procedure: Boc solid-phase peptide synthesis; Boc-Lys(Cl-Z)-O-Resin (0.4 m mole/g, Peninsula Labs.)
Settings: whole synthesis; for isolated yield: calculated from coupling with Asn, scale of the general procedure 1.25 g resin

Question: With “PEPTIDE1{H.S.D.A.V.F.T.D.N.Y.T.R.L.R.K.Q.L.A.V.K.K.Y.L.N.S.I.L.N.G.K}$$$$V2.0” as the substance, how does the crude mass read?
Answer: Its crude mass is 628 mg.

Question: What about the isolated yield of the same substance?
Answer: The isolated yield was 8.5%.

Question: Which crude mass does the source give for “PEPTIDE1{H.S.D.A.V.F.T.D.N.Y.T.R.L.R.K.Q.M.A.V.K.K.Y.L.N.S.I.L.N.G.K}$$$$V2.0” here?
Answer: The crude mass was 834 mg.

Question: And the isolated yield?
Answer: Its isolated yield is 24.3%.
